The text below walks through data of article doi:10.1101/2024.01.22.576777.

Amino acid sequences for entries named in this document (tags omitted). Residues count along the entry.
UniProt Q14416, residues 19-872: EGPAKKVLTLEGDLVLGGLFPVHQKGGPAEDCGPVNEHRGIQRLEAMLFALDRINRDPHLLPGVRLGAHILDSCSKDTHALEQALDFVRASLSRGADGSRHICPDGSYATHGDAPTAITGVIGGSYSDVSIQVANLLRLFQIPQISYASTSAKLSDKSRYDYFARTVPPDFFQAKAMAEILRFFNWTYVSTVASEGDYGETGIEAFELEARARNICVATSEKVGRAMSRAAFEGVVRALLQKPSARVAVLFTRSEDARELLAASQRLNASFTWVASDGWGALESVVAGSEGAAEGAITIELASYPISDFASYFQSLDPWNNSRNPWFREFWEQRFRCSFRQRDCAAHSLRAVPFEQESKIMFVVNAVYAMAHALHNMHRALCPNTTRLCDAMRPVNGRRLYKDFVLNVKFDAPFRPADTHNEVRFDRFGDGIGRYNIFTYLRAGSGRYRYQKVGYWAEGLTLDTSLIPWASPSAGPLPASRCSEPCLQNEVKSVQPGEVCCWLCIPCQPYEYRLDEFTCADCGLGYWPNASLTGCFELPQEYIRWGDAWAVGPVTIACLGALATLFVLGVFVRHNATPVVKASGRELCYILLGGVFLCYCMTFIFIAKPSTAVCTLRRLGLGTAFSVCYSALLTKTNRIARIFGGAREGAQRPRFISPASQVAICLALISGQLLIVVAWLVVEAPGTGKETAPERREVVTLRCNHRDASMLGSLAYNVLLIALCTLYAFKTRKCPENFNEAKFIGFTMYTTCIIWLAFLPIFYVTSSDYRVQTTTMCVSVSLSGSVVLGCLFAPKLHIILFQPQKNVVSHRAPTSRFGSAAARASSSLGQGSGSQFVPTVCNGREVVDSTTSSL
UniProt Q14832, residues 23-879: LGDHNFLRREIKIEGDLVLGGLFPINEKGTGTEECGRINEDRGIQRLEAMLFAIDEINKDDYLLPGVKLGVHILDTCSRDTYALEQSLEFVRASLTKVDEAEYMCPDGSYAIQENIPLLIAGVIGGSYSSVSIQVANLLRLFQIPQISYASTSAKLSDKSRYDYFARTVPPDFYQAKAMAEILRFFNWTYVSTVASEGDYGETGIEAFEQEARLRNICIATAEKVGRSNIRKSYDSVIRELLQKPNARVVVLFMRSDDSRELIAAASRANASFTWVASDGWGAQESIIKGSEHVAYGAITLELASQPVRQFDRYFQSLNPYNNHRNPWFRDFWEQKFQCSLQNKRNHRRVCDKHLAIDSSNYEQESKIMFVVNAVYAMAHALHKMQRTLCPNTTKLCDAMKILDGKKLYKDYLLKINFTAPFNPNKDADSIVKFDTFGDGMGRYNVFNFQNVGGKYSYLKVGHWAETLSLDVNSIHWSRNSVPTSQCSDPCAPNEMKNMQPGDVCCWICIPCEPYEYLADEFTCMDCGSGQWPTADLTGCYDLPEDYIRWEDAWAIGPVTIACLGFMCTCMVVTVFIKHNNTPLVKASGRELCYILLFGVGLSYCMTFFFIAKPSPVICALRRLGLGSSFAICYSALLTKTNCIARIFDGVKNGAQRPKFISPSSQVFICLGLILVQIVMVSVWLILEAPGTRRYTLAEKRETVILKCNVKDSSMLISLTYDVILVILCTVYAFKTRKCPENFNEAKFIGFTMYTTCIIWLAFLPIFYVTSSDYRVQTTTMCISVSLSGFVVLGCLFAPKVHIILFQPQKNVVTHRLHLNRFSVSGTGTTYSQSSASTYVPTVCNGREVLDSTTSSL
UniProt P41594, residues 21-1212: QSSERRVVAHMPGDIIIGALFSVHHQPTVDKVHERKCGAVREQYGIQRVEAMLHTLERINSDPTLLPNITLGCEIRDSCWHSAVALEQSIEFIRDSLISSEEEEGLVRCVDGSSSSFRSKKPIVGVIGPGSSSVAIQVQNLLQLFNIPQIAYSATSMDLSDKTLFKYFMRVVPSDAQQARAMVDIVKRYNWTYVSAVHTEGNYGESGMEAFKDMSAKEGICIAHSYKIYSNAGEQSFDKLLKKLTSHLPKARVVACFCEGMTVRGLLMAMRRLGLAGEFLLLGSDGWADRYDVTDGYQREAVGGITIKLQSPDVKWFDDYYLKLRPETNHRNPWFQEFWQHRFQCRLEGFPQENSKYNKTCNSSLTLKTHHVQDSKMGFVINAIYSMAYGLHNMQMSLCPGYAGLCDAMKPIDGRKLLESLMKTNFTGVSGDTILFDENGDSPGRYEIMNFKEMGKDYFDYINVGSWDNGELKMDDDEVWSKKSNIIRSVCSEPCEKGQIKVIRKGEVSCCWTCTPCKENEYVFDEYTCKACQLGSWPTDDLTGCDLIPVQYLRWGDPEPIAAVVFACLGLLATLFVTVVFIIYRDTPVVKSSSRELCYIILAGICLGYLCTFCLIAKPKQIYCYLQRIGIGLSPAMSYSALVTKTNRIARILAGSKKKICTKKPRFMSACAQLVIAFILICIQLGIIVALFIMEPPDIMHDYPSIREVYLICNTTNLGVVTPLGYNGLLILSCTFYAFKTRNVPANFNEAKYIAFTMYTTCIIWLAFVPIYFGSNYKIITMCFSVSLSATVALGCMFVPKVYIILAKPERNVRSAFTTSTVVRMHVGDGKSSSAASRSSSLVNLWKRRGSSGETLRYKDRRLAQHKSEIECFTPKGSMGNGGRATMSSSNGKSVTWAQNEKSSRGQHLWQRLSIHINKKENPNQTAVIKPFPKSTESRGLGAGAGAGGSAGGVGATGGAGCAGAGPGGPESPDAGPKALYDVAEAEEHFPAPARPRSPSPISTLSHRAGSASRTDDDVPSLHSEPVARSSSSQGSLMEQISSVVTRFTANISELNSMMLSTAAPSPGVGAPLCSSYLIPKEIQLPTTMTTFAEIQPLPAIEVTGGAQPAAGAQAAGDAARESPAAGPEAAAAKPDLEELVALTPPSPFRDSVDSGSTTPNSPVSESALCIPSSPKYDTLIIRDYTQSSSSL

These are yes or no findings as the source states them, for the method shown. In cells and extracts the contact can be indirect. Some entries that bind do so weakly or less than the wild type.

One experiment deals with Snap-tagged APP (human) (UniProt P05067). Description: FRET or BRET. (In general: Bioluminescence resonance energy transfer reports proximity on the nanometre scale.)
The target of experiment [1] is Snap-tagged human mGlu2 receptor (human) (UniProt Q14416). As to the kind of experiment: FRET or BRET.

Take “Halo-tagged mGluR3 (from UniProt Q14832 23-879) (receptor)”: the binding result in the experiment with Snap-tagged APP (human) is recorded as “binds”. Take “Halo-tagged mGluR5 (from UniProt P41594 21-1212) (receptor)”: in experiment [1], the binding entry was “no binding”.
